# PubChem BioAssay AID652054 (National Center for Advancing Translational Sciences (NCATS), 2013)
# Sequences of proteins named here, by UniProt entry; tags and fusion partners are left off.
# UniProt P35462, whole entry, looked up: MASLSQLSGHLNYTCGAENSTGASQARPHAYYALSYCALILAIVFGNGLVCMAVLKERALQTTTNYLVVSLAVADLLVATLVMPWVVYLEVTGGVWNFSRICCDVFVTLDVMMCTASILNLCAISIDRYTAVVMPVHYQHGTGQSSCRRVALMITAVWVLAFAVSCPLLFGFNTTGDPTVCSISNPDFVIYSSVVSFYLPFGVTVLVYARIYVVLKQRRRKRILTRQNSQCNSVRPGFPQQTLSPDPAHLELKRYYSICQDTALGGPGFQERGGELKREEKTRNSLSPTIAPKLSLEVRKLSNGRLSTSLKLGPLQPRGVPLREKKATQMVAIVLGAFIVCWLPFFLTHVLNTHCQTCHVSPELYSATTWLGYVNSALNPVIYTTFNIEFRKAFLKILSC
# The campaign covered roughly 360,000 compounds. About 9,100 (2.5%) were called active. Inconclusive means that the source gave no clear call. Such entries were picked first, then a sample of the others. No stated cut-off is given here; in the data, active means max response below about -50%; inconclusive means no clear call, values can overlap the other calls; inactive means above that.
# Target: D(3) dopamine receptor (Homo sapiens) (UniProt P35462)
# Experiment: qHTS of D3 Dopamine Receptor Antagonist: qHTS
# Conditions: D3R cells, DiscoveRx beta-arrestin luminescence, antagonist mode; stronger effect = lower value
# In short: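 Cells plated overnight at 1500 cells/well, then exposed to library compounds with dopamine controls for 90 minutes at 37 degrees C. DiscoveRx reagent added for 30–60 minutes at room temperature; luminescence read, quantitative HTS format.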
# On the % scale 0 is the no-effect control and ±100 the full control effect.
row,Structure (SMILES),"max response, negative = inhibition"
1,CN(c1ccc(OCC(=O)OCC(=O)NC2CCCC2)cc1)S(=O)(=O)c1ccc2ccccc2c1,inconclusive: -36.6%
2,CC1CCN(C(=O)COC(=O)CNC(=O)c2ccccc2F)CC1,inconclusive: -42.1%
3,Cc1ccc(-c2c(C)c(-c3ccc(F)cc3)nc(N)c2C#N)o1,inactive: -13.5%
4,COc1ccc(N2C(=O)C(Cl)=C(N(CCO)Cc3ccccc3)C2=O)cc1,inconclusive: -37.8%
5,O=C1C(Cl)=C(N2CCOCC2)C(=O)N1c1ccccc1Cl,inconclusive: -34.9%
6,O=C(NC(NC(=S)Nc1cccc(Cl)c1)C(Cl)(Cl)Cl)OCc1ccccc1 (stereo not drawn),inconclusive: -36.2%
7,CC(C)c1ccc(N2C(=O)C(Cl)=C(N3CCOCC3)C2=O)cc1,inconclusive: -31.6%
8,CCCCCCC(=O)N(O)C1CC(=O)N(Cc2ccccc2)C1=O (stereo not drawn),inactive: -4.64%
9,C=CCn1c(=O)c2c3c(sc2n2c(Nc4ccc(C(=O)OCC)cc4)nnc12)CCCC3,inconclusive: -32.2%
10,O=C(CCC(=O)Nc1ccccc1)NNC(=O)c1ccco1,inconclusive: -33.1%
11,COc1ccc(S(=O)(=O)N2CCCCCC2)cc1NC(=O)CCNC(=O)c1ccc(Cl)cc1,inconclusive: -35.5%
12,C=CC(=O)Oc1ccc(N2Cc3ccccc3C2=O)cc1,active: -64.1%
13,Cc1cccc(N(C)C(=O)c2cc3c(=O)[nH]c4ccc(C)cc4c3s2)c1,inactive: -15.8%
14,Oc1cccc(Nc2nc(NCC3CCCO3)c3ccccc3n2)c1 (stereo not drawn),inactive: 0.488%
15,O=C(NC(c1ccc(Cl)cc1)c1ccsc1)C1CCN(Cc2ccc(Oc3ccccc3)cc2)CC1 (stereo not drawn),active: -64.4%
16,O=C(NC(=S)N1CCN(Cc2ccc3c(c2)OCO3)CC1)c1ccc(Cl)cc1,inconclusive: -31.4%
17,COc1cc(S(=O)(=O)N2CCCCC2)ccc1NC(=O)c1ccc(F)cc1,inconclusive: -34.1%
18,Cc1cc(NC(=O)CN2CCN(c3ccccc3O)CC2)no1,inconclusive: -35.5%
19,O=C(c1cnc(N2CCN(c3ccccn3)CC2)c2ccccc12)N1CCN(c2cccc(Cl)c2)CC1,inactive: 25.7%
20,O=c1[nH]c2cc3c(cc2cc1C(c1nnnn1C1CCCC1)N1CCSCC1)OCCO3 (stereo not drawn),inconclusive: -32%
21,OCCC1CN(CC(c2ccccc2)c2ccccc2)CCN1C1CCCC1 (stereo not drawn),inconclusive: -42.5%
22,O=C(CNC(=O)c1cccc(OC(F)F)c1)Nc1ccc(Cl)cc1,inconclusive: -48.3%
23,Cc1ccccc1NC(=O)COC(=O)c1ccc(S(C)(=O)=O)c([N+](=O)[O-])c1,active: -98.1%

# An excerpt of these results, with bars between the fields:
row | Structure (SMILES) | max response, negative = inhibition
1 | CN(c1ccc(OCC(=O)OCC(=O)NC2CCCC2)cc1)S(=O)(=O)c1ccc2ccccc2c1 | inconclusive: -36.6%
19 | O=C(c1cnc(N2CCN(c3ccccn3)CC2)c2ccccc12)N1CCN(c2cccc(Cl)c2)CC1 | inactive: 25.7%
